Binding signal data for 54 sequences are collected here from PMC7819943, “Rice protein-binding microarrays: a tool to detect cis-acting elements near promoter regions in rice”.

The chains behind the UniProt entries cited, without tags or fusion partners.
UniProt Q0JBA9, entry or part of it: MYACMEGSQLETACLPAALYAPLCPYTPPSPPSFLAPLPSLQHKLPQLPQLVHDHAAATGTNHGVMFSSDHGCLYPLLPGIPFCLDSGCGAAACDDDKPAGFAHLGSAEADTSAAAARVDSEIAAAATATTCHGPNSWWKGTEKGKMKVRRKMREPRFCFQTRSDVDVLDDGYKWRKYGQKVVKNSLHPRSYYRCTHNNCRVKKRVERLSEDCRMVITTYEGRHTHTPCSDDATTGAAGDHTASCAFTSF

Some of the results follow.

For this assay, the target named is OsWRKY34 (Oryza sativa, UniProt Q0JBA9 1-250). Kind of assay: protein-binding microarray (RPBM); PBS, 2% BSA, 51.3 ng/ul salmon testes DNA, 50 uM zinc acetate, 200 nM TF, 25 C, 1 h; high values mean tight binding. The conditions noted are these: protein: recombinant; tags: N-terminal polyhistidine and DsRed monomer fusion (pET32a); label: CyDye5-dUTP incorporated in the synthesized complementary strand; 3' TTTTT single-stranded linker to array surface; dsDNA, one strand shown. The method in brief:
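Binding signal is reported as fluorescence intensity per feature (arbitrary units) from an Axon 4000B scanner. Incubation used 200 nM of each Ni–NTA-purified, N-terminally polyhistidine- and DsRed-fused transcription factor from E. coli BL21-CodonPlus on a double-stranded custom Agilent array for 1 h at 25 °C, with 50 µM zinc acetate in the buffer, followed by washing.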
As for “CCTTCCTTTTTGTTGACTCACCTACTCTGTTAATCTCTACCGGAGTCACCTAGTGCAG”, the binding signal was 9630 fluorescence intensity (a.u.). “ACACATGTAATATCACTTAGCTTTTTCATGAATGGACAATCGGAGTCACCTAGTGCAG”: the binding signal was 8870 fluorescence intensity (a.u.). As for “TCCCTTTCGCTTTTCCAGCCTCATCAGTTTCTTCACATTTCGGAGTCACCTAGTGCAG”, the binding signal is 8650 fluorescence intensity (a.u.). Take “ATTTCACTTGTGCCTGTTTTGATGAGTTCGTCTATATCTTCGGAGTCACCTAGTGCAG”: the binding signal is 8350 fluorescence intensity (a.u.). With “TCCGCTTCCGCTCCACTCTTCTCCTCTCCCGCGCGCCACGCGGAGTCACCTAGTGCAG” the figure was 9630 fluorescence intensity (a.u.); with “CCGTTTCACAATGTAAGTCATTCTAGCATTTCTCATATTTCGGAGTCACCTAGTGCAG”, 9930 fluorescence intensity (a.u.); with “AGGCTTGTTTGGTTTACTGTCATGTTAAAATGTTGACAATCGGAGTCACCTAGTGCAG”, 8600 fluorescence intensity (a.u.). For “TTTCAGTGTATTACAAGCAGCTTTCAAGTTTCAACACATTCGGAGTCACCTAGTGCAG” the value was 8170 fluorescence intensity (a.u.); for “ACGGGTGATCGCTAACTTGCCGTCTTGCCGGATTGCCCGCCGGAGTCACCTAGTGCAG”, 8350 fluorescence intensity (a.u.). In the case of “GGTGCCGTGAACTCACTTGGTCTGGTTTTTCTTATCCTCTCGGAGTCACCTAGTGCAG”, the binding signal is 10400 fluorescence intensity (a.u.).

As for “ATGTGTGATGCCCAGTTTGCTCTGCTCCTGTTAAAATATACGGAGTCACCTAGTGCAG”, the binding signal is 9700 fluorescence intensity (a.u.). As for “CATCCGCCCGTCCTTATCCATCCGCCTTATCCATCCATCCCGGAGTCACCTAGTGCAG”, the binding signal is 9000 fluorescence intensity (a.u.).

Turning to “GCCGTCGCTCATCGAGCTCGACATCTCCGTACCGCCACTCCGGAGTCACCTAGTGCAG”, the binding signal is 9450 fluorescence intensity (a.u.). Consider “GCCTCATCCCAATCCCGGTTGGTGCCACCCAAACCAATCTCGGAGTCACCTAGTGCAG”, for which the binding signal was 8830 fluorescence intensity (a.u.). Regarding “GCATTTTTCTGTCTTCATCCGGTCCGCACCAACTACACCACGGAGTCACCTAGTGCAG”, the binding signal was 13700 fluorescence intensity (a.u.). With “GCCTTCACAAAATCACAAGCGAATGATTTTACTGCCTTGCCGGAGTCACCTAGTGCAG” the figure was 9190 fluorescence intensity (a.u.); with “GTGGGTGTTGATTTGCGGGTGTGTCCCCTCTCCTCTTAGGCGGAGTCACCTAGTGCAG”, 9310 fluorescence intensity (a.u.); with “ACTTATTCCTAGGCCCAAACACCCGGCTCACATCACATCGCGGAGTCACCTAGTGCAG”, 10400 fluorescence intensity (a.u.).

Consider “GACCTTATGTTAACTTCTTCTAGAGATTGGACCTTATGTTCGGAGTCACCTAGTGCAG”, for which the binding signal was 10500 fluorescence intensity (a.u.). Turning to “GATACCATCTCATATAGTGTACTTTCTCCATCCTATAAAACGGAGTCACCTAGTGCAG”, the binding signal is 8410 fluorescence intensity (a.u.). With “CGCCATCGCCAACGCCAACGCCTCCGCGGACTCCATTGTCCGGAGTCACCTAGTGCAG”, the binding signal was 8540 fluorescence intensity (a.u.).

As to “CTACCTTGGGCTATGCCGTCGCTCTTTCTCCAAGGCGCGCCGGAGTCACCTAGTGCAG”, the binding signal is 8610 fluorescence intensity (a.u.).

With “TTTCTTTCCTGTTTTAGGAGGGTTTTCCACGTTAAATCTTCGGAGTCACCTAGTGCAG”, the binding signal was 8290 fluorescence intensity (a.u.).

Regarding “TACATCATCCCGTGCCATGTCCATATAAACGCTTCACCCACGGAGTCACCTAGTGCAG”, the binding signal is 8360 fluorescence intensity (a.u.). Regarding “TCATCATTCCAATATGCTATGAAGTTGTGATAATTTTTATCGGAGTCACCTAGTGCAG”, the binding signal is 8630 fluorescence intensity (a.u.).

Take “ATCTTCTGTTTCATATTTAACCTTTATCTTGCTTCACAAACGGAGTCACCTAGTGCAG”: the binding signal was 10800 fluorescence intensity (a.u.).

As for “TTGATGGGTTTTGGGTTTTTGTGCTGCTCCTTTTTCGTAACGGAGTCACCTAGTGCAG”, the binding signal is 19800 fluorescence intensity (a.u.). Take “TTACCGATGCGACCTGTCCCTGTCACTCCCGCCTCGGTAACGGAGTCACCTAGTGCAG”: the binding signal was 9060 fluorescence intensity (a.u.).

As for “AATAGACAGCATTTTCGGCTTCCAACCGGCTACCTTCTTTCGGAGTCACCTAGTGCAG”, the binding signal was 8160 fluorescence intensity (a.u.). In the case of “TCCATTTCATATTACAAGTCGTTTTGACTTTTTTTTCTAACGGAGTCACCTAGTGCAG”, the binding signal was 10700 fluorescence intensity (a.u.).

Take “TAATCCGCTCAATAATGATCTGTTTCAAACTGCGCCACCCCGGAGTCACCTAGTGCAG”: the binding signal was 9040 fluorescence intensity (a.u.). For “GTCGACGTGTTTCAAATTCCTATGCTTGAAAGCACTTTCCCGGAGTCACCTAGTGCAG”, the binding signal is 9300 fluorescence intensity (a.u.). For the sequence “GTTTGGATGTTTTCTTGTTCCTTTGTGTGCGGTGGAATAACGGAGTCACCTAGTGCAG”, the binding signal was 12000 fluorescence intensity (a.u.). For “CCTCTTCACACGACGCTCCCATTTTTATTTATATATATCACGGAGTCACCTAGTGCAG” the value was 11100 fluorescence intensity (a.u.); for “ACACAATTTTCATTACATTTGTTCTCATCTTCAGAAATTACGGAGTCACCTAGTGCAG”, 10400 fluorescence intensity (a.u.); for “AGTGTCGTTGACTAACTCGATGGTCACCAAGCAGATGGCACGGAGTCACCTAGTGCAG”, 12800 fluorescence intensity (a.u.). With “GAAGCAACAGTTCTCTCGCCTCCGGTTCTCCATTGTCCATCGGAGTCACCTAGTGCAG” the figure was 8750 fluorescence intensity (a.u.); with “ACCCTTACGAACGTACGCTTGCACTTTACCTCTATGAGCACGGAGTCACCTAGTGCAG”, 10500 fluorescence intensity (a.u.); with “TACCGTATTGTGTTCTTTAATGTTTTTATTTTTTATTTTCCGGAGTCACCTAGTGCAG”, 10300 fluorescence intensity (a.u.).

With “TTTTACTTTTGATTGTAACGCGTTTTGGTTTAATTAGTACCGGAGTCACCTAGTGCAG”, the binding signal was 9910 fluorescence intensity (a.u.).

With “CTTGGGCCCCACCTGACAGCGACCGGTCCAACCGCTAACCCGGAGTCACCTAGTGCAG”, the binding signal is 8220 fluorescence intensity (a.u.).

Consider “TCCATCTTATCTCCGCGTCCGCCTCGCGCCACCGCCGCCTCGGAGTCACCTAGTGCAG”, for which the binding signal is 9800 fluorescence intensity (a.u.). For “CGTCCAGCCCGACCGAGCGCTGCATTGCTACTGTACCGCGCGGAGTCACCTAGTGCAG”, the binding signal is 8160 fluorescence intensity (a.u.). With “GGACTTATACCTATTTTTACCTTACAAGTATTCCTTTGGACGGAGTCACCTAGTGCAG”, the binding signal was 8560 fluorescence intensity (a.u.). As for “TTATTTCGGAACAAAAGGGCGGGGTCAAAAATAAAAACTTCGGAGTCACCTAGTGCAG”, the binding signal was 8380 fluorescence intensity (a.u.). In the case of “CTTATCGCTTTCTCCTCGTTGTCTCCGCGCGCGCTCTCTCCGGAGTCACCTAGTGCAG”, the binding signal is 8200 fluorescence intensity (a.u.). Regarding “CCCACCACCCGCCACCCGCCATCGCTCCACCCACCGCCCGCGGAGTCACCTAGTGCAG”, the binding signal was 11900 fluorescence intensity (a.u.).

Regarding “GATGAATTTGCCGTTCCCTGTTCAAAATTTGACGTTCGCTCGGAGTCACCTAGTGCAG”, the binding signal is 10400 fluorescence intensity (a.u.). With “TTGCTGCTGTCACATTGTTTTCCTTTGATTTTGTGTTTCGCGGAGTCACCTAGTGCAG”, the binding signal is 11800 fluorescence intensity (a.u.).

Take “GTTTACCTTTTGAACTCTTCTACTACATTTTTGCTGTTTACGGAGTCACCTAGTGCAG”: the binding signal was 9800 fluorescence intensity (a.u.). Consider “TGCTGCTGCTGACGTGGCTCCCGCATCTGCCGCGCGCTATCGGAGTCACCTAGTGCAG”, for which the binding signal was 8080 fluorescence intensity (a.u.).

As to “TCATGGTGCATGATCTAATTACTGGCTTCTATCCTTCTCACGGAGTCACCTAGTGCAG”, the binding signal is 8980 fluorescence intensity (a.u.). Regarding “CTTTTTCATTTTTTATCGTTTGTTGTACCTCACTCTTCTACGGAGTCACCTAGTGCAG”, the binding signal was 8590 fluorescence intensity (a.u.).

As for “AGGTTTCTTGGGTTTTGTTTAGGTAAAAGTTTAGCTTTGCCGGAGTCACCTAGTGCAG”, the binding signal is 8030 fluorescence intensity (a.u.).
